Drawing on PubChem BioAssay AID248 (DTP/NCI, 2004), this text covers survivor count and T/C for 29 compounds.

Each structure is given as a SMILES string. The list is a part of this screen's results and no random one: it is rich in T/C values a quarter to a half above the control, in often repeated tests (any T/C) and in doses without a T/C. Other doses and runs of a compound stand elsewhere. T/C gives the treated animals as a percentage of the vehicle group. Some entries give survivors of the animals treated and no T/C: the source holds a T/C of zero for them, seemingly a mark for toxic or unscored doses. Some survivor counts are full or nearly so, which does not show that the dose was tolerated: survival well below the control is almost never listed, so the zero probably covers shortened survival too. Counts of survivors are from the toxicity check (mostly the fifth day) where no day follows; animals may have died later. Schedule codes are those of the source, read here as Q, the interval in days (D) or hours (H), X, the number of doses. Some entries were tested several times; their values stand side by side, smallest first. Some schedules carry Z or #; the key to these is not given. Some molecules as drawn cover several salts, stereoisomers or complexes of the source; a dose is that of the sample tested. For survival time, the PubChem record calls one and a half times the control and up active, and a quarter to a half above the control has no call in these data; cut-offs in other NCI protocols can differ.

The test system of the assay is L1210 leukemia ip in BDF1 mice, survival T/C. Nature of the assay: NCI In Vivo Anticancer Drug Screen. Data for tumor model L1210 Leukemia (intraperitoneal) in B6D2F1 (BDF1) mice. To be noted: T/C endpoint: mean survival time, higher T/C = longer survival.
The mark [1] stands for this setting: dose: 100.0 mg/kg/injection, schedule: Q01DX009 (ip), vehicle: Klucel (hydroxypropylcellulose) (HPC).
Setting [2] is: dose: 200.0 mg/kg/injection, schedule: Q04DX003 (ip), vehicle: Klucel (hydroxypropylcellulose) (HPC).
Where [3] appears, read: dose: 400.0 mg/kg/injection, schedule: Q04DX003 (ip), vehicle: Klucel (hydroxypropylcellulose) (HPC).
[4] abbreviates: dose: 400.0 mg/kg/injection, schedule: Q04DX003 (ip), vehicle: saline.
Setting [5] is: dose: 400.0 mg/kg/injection, schedule: Q01DX001 (ip), vehicle: saline.
[6] abbreviates: dose: 400.0 mg/kg/injection, schedule: Q01DX009 (ip), vehicle: Klucel (hydroxypropylcellulose) (HPC).
Where [7] appears, read: dose: 200.0 mg/kg/injection, schedule: Q01DX009 (ip), vehicle: Klucel (hydroxypropylcellulose) (HPC).
Setting [8] is: dose: 400.0 mg/kg/injection, schedule: Q04DX002 (ip), vehicle: Klucel (hydroxypropylcellulose) (HPC).
[9] abbreviates: dose: 50.0 mg/kg/injection, schedule: Q01DX001 (ip), vehicle: saline.
Setting [10] is: dose: 100.0 mg/kg/injection, schedule: Q01DX001 (ip), vehicle: saline.
Setting [11] is: dose: 200.0 mg/kg/injection, schedule: Q01DX001 (ip), vehicle: saline.
[12] abbreviates: dose: 200.0 mg/kg/injection, schedule: Q01DX001 (ip), vehicle: Klucel (hydroxypropylcellulose) (HPC).
The mark [13] stands for this setting: dose: 400.0 mg/kg/injection, schedule: Q01DX001 (ip), vehicle: Klucel (hydroxypropylcellulose) (HPC).
Where [14] appears, read: dose: 400.0 mg/kg/injection, schedule: Q01DX009 (ip), vehicle: saline with Tween-80.

Turning to `CC/C(=C\c1ccc(Cl)cc1)[N+](=O)[O-]`, the survivor count under setting [1] is on record as 5 of 6; the survivor count under setting [2] was 3 of 6 and 4 of 6; the survivor count under setting [3] is 1 of 6.
As for `CCOC(=O)NCCN(C)C`, under setting [4], the survivor count is 5 of 6.
Consider `O=C1OC(c2ccccc2)(c2ccccc2)Cc2ccccc21`, for which the survivor count under setting [2] is given as 6 of 6.
With `CC(C)(C)OC(=O)CC#N`, the survivor count (dose: 75.0 mg/kg/injection, schedule: Q04DX003 (ip), vehicle: saline) is recorded as 6 of 6; the survivor count (dose: 150.0 mg/kg/injection, schedule: Q04DX003 (ip), vehicle: saline) is on record as 6 of 6; the survivor count (dose: 300.0 mg/kg/injection, schedule: Q04DX003 (ip), vehicle: saline) is 6 of 6; the survivor count under setting [5] is 1 of 4.
For `OC1C2CCC(C2)[CH]1[Hg][Cl]` (stereo not drawn), the survivor count runs as follows: (dose: 30.0 mg/kg/injection, schedule: Q01DX001 (ip), vehicle: carboxymethylcellulose (CMC)) 2 of 6; (dose: 60.0 mg/kg/injection, schedule: Q01DX001 (ip), vehicle: carboxymethylcellulose (CMC)) 0 of 6.
Take `CCCCCCCCCC(=O)N/N=C/c1ccncc1`: the survivor count under setting [6] is 5 of 6.
As for `CCOC(=O)C(N=Nc1ccccc1)C(C)=O` (stereo not drawn), the survivor count under setting [1] is recorded as 3 of 6, the survivor count under setting [7] is reported as 0 of 6 and the survivor count under setting [6] is 0 of 6.
As to `NC(=O)c1ccc(Cl)c([N+](=O)[O-])c1`, under setting [3], the survivor count is reported as 0 of 6.
On to `CCCCn1cnc(=S)c2[nH]cnc21`, for which the T/C under setting [2] is 132 and 136 % of control; the T/C (dose: 300.0 mg/kg/injection, schedule: Q04DX003 (ip), vehicle: Klucel (hydroxypropylcellulose) (HPC)) was 144 % of control.
For `O=[N+]([O-])c1cc(Cl)cc(Br)c1O`, the survivor count is 6 of 6 under setting [2] and 6 of 6 under setting [3].
Regarding `O=C(O)c1ccccc1C(=O)Nc1cc(Cl)ccc1Cl`, the survivor count under setting [3] is listed as 6 of 6.
In the case of `COc1cc(C(=O)Nc2ccc(N(C)C)cc2)cc(OC)c1OC`, where the note is “dose: 400.0 mg/kg/injection, schedule: Q01DX009 (ip), vehicle: saline”, the survivor count is 3 of 6.
For the compound `NC(N)=NC(N)=Nc1ccccc1Br`, the survivor count by setting is: under setting [7], 2 of 6; under setting [8], 0 of 3; under setting [3], 0 of 6.
Turning to `CN=C(N)N/N=C/C(C)=N/NC(N)=NC`, the survivor count runs as follows: (dose: 240.0 mg/kg/injection, schedule: Q01DX Z (ip), vehicle: saline) 0 of 6; (dose: 480.0 mg/kg/injection, schedule: Q01DX Z (ip), vehicle: saline) 0 of 6.
Consider `CC1(C)N=C(N)N=C(N)N1c1ccc(CCCCc2ccc(Cl)cc2Cl)cc1`, for which the survivor count is, setting by setting: (dose: 40.0 mg/kg/injection, schedule: Q01DX001 (ip), vehicle: saline) 0 of 4; under setting [9], 1 of 4; (dose: 80.0 mg/kg/injection, schedule: Q01DX001 (ip), vehicle: saline) 0 of 4; under setting [10], 1 of 6 and 2 of 4; under setting [11], 0 of 4 and 0 of 6; under setting [5], 0 of 4 and 0 of 6.
In the case of `O=C(O)c1[nH]c(=O)[nH]c(=O)c1N1CCCCC1`, the survivor count was 1 of 6 under setting [9]; 1 of 6 (dose: 100.0 mg/kg/injection, schedule: Q01DX001 (ip), vehicle: Klucel (hydroxypropylcellulose) (HPC)); 2 of 6 under setting [1]; 0 of 6 under setting [12]; 1 of 6 under setting [13].
On to `NCCCCC(N)C(=O)Nc1ccc(Nc2ccc(NC(=O)C(N)CCCCN)cc2)cc1` (stereo not drawn), for which the survivor count by setting is: under setting [10], 1 of 6; under setting [11], 1 of 6; under setting [5], 0 of 6.
In the case of `OC(CBr)c1ccc(Cl)cc1` (stereo not drawn), the survivor count under setting [14] was 6 of 6.
For the compound `Clc1ncc(Br)c(Cl)n1`, the survivor count is listed as 3 of 6 (dose: 50.0 mg/kg/injection, schedule: Q01DX009 (ip), vehicle: Klucel (hydroxypropylcellulose) (HPC)); 2 of 6 under setting [1]; 1 of 6 under setting [7]; 2 of 6 (dose: 400.0 mg/kg/injection, schedule: Q04DX003 (ip), vehicle: other).
With `CCCCCCCCCCN1C(=O)C(Cl)=C(Cl)C1=O`, the survivor count runs as follows: (dose: 100.0 mg/kg/injection, schedule: Q04DX003 (ip), vehicle: saline with Tween-80) 0 of 6; (dose: 200.0 mg/kg/injection, schedule: Q04DX003 (ip), vehicle: saline with Tween-80) 0 of 6; (dose: 400.0 mg/kg/injection, schedule: Q04DX003 (ip), vehicle: saline with Tween-80) 0 of 6.
Consider `O=C(COc1ccc(Cl)cc1Cl)OCCCl`, for which the survivor count under setting [8] is given as 0 of 3.
For `Nc1ccc2ncsc2c1`, under setting [14], the survivor count was 5 of 6.
With `CCCCC(CCCCCC(CCCC)C1NC(C)Cc2cc(OC)c(OC)cc21)C1NC(C)Cc2cc(OC)c(OC)cc21` (stereo not drawn), the survivor count is given as 2 of 3 under setting [12] and 0 of 3 under setting [13].
On to `C/C(=N\N=C(/C)c1cccc(N)c1)c1cccc(N)c1`, for which the survivor count under setting [10] was 6 of 6.
As for `Cc1cccc(NC(=O)/C=C/c2ccccc2)n1`, the survivor count by setting is: (dose: 150.0 mg/kg/injection, schedule: Q01DX009 (ip), vehicle: Klucel (hydroxypropylcellulose) (HPC)) 1 of 6; (dose: 200.0 mg/kg/injection, schedule: Q04DX002 (ip), vehicle: Klucel (hydroxypropylcellulose) (HPC)) 1 of 3; (dose: 225.0 mg/kg/injection, schedule: Q01DX009 (ip), vehicle: Klucel (hydroxypropylcellulose) (HPC)) 0 of 6; (dose: 335.0 mg/kg/injection, schedule: Q01DX009 (ip), vehicle: Klucel (hydroxypropylcellulose) (HPC)) 0 of 6; under setting [8], 1 of 3.
`C[CH2][Hg][I]`: the survivor count is, setting by setting: (dose: 100.0 mg/kg/injection, schedule: Q04DX002 (ip), vehicle: saline with Tween-80) 1 of 3 and 2 of 3; (dose: 200.0 mg/kg/injection, schedule: Q04DX002 (ip), vehicle: saline with Tween-80) 0 of 3; (dose: 400.0 mg/kg/injection, schedule: Q04DX002 (ip), vehicle: saline with Tween-80) 0 of 3.
For `[Cl][Zn][Cl].[NH-]CCN1CC1.[NH-]CCN1CC1`, the survivor count is listed as 0 of 6 (dose: 80.0 mg/kg/injection, schedule: Q04DX003 (ip), vehicle: saline); 0 of 6 (dose: 100.0 mg/kg/injection, schedule: Q04DX003 (ip), vehicle: saline); 0 of 6 (dose: 200.0 mg/kg/injection, schedule: Q04DX003 (ip), vehicle: saline); 0 of 6 under setting [4].
On to `O=C(c1ccccc1)C(O)(CCP(=O)(c1ccccc1)c1ccccc1)c1ccccc1` (stereo not drawn), for which the survivor count (dose: 300.0 mg/kg/injection, schedule: Q01DX001 (ip), vehicle: carboxymethylcellulose (CMC)) is 5 of 6.
With `CCCCCCCCCCCCCCCCSCCCCCCCCCCCCCCCC`, the survivor count under setting [14] is recorded as 4 of 6.
